From PubChem BioAssay AID504467 (National Center for Advancing Translational Sciences (NCATS), 2011)
Hit rate of the full screen: of about 330,000 compounds, about 7,700 (2.3%) were called active. Inconclusive results, whose numbers are uncertain, are shown with a selection of clear calls. Calls follow the shape of the dose curve; as a rule, active = well fitted inhibition curve with a large enough effect; inconclusive = small, poorly fitted or top-dose-only effect, or effect the other way; inactive = flat fitted curve, though single readings scatter. A potency beside an inconclusive call is a rough fit, not a confirmed value.

Assay: qHTS screen for small molecules that inhibit ELG1-dependent DNA repair in human embryonic kidney (HEK293T) cells expressing luciferase-tagged ELG1; also: nearly all actives have a fitted effect of over 55% in size
Conditions: HEK293T ELG1-luciferase reporter, luminescence, 16 h, DNA damage induced by 5-fluorouridine; series mostly up to 46.1 µM
In short: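 Cells (2,000 per well) received 5-fluorouridine plus test compound or DMSO and were incubated 16 hr at 37 °C, 5% CO2. Luciferase activity was read by luminescence 30 min after ONE-Glo addition; signal suppression marked inhibition of damage-induced ELG1 function.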
Potency is read from the fitted curve at half-maximal effect.

Compound | Potency
Cc1noc(C)c1NC(=O)N(C)C[C@H]1Oc2c(NS(=O)(=O)c3cccs3)cccc2C(=O)N([C@H](C)CO)C[C@@H]1C | inconclusive: 25.9 µM [activator, single point]
CN(C)c1nc(C(=O)NN)nc(N(C)C)n1 | inactive
CCC(C)OC(=O)C1=C(C)OC23OC(N)=C(C#N)C12C(=O)c1ccccc13 (stereo unspecified) | inconclusive: 29.1 µM [activator, single point]
O=C(O)Cc1ccc(C(=O)c2ccc(Cl)cc2)s1 | inconclusive: 18.4 µM [activator, partial curve, poor fit]
C=CCn1c(CSCc2ccccc2)nnc1SCC(=O)N1CCN(c2ccccc2)CC1 | inconclusive: 13 µM [inhibitor, partial curve]
N/C(=N\OC(=O)CCCOc1ccccc1)c1ccccn1 | inconclusive: 20.6 µM [activator, single point]
O=C(Cn1nc(-c2ccccc2)ccc1=O)Nc1ccc(N2CCN(C(=O)c3ccccc3)CC2)cc1 | inconclusive: 23.1 µM [inhibitor, partial curve]
O=C(CN1CCc2cc3c(cc2C1)OCCCO3)Nc1ccc(F)cc1 | inconclusive: 29.1 µM [inhibitor, single point]
Cc1ccccc1C(=O)Nc1nnc(S(=O)(=O)N2CCCCCC2)s1 | inconclusive: 16.4 µM [activator, single point]
CCCCn1c(SCC(=O)Nc2cc(C(F)(F)F)ccc2Cl)nnc1C(CC)N(C)C (stereo unspecified) | inactive
CCn1c(C(=O)NC2CCC(C)CC2)cc2sccc21 (stereo unspecified) | inconclusive: 8.2 µM [activator, partial curve]
CCc1ccccc1NC(=O)COc1ccc2c(=O)c(Oc3cc(C)ccc3C)coc2c1 | inconclusive: 16.4 µM [inhibitor, single point]
Cc1ccc(NCCc2ccc(C)nc2)cc1 | inconclusive: 20.6 µM [activator, single point]
COc1ccccc1C(=O)NCCC(=O)Nc1cccc(S(=O)(=O)N2CCCC2)c1 | inconclusive: 18.3 µM [inhibitor, single point]
CC(C)c1ccc2nc3sc(C(=O)N4CCc5ccccc5C4)c(N)c3cc2c1 | inconclusive: 18.4 µM [activator, partial curve]
Clc1ccc(/C=N/Nc2ncnc3nc[nH]c23)cc1 | inconclusive: 25.9 µM [activator, single point]
CN(C)C(=O)c1ccc(NC(=O)c2cncc(Br)c2)cc1 | inconclusive: 32.6 µM [inhibitor, single point]
CCCCN(C(=O)c1ccc(Br)o1)C1CCS(=O)(=O)C1 (stereo unspecified) | inconclusive: 29.1 µM [activator, single point]
O=C(Nc1ccc(CN2CCOCC2)cc1)c1ccc(-c2ccc(Cl)cc2Cl)o1 | inconclusive: 20.6 µM [inhibitor, partial curve]
Cc1nn(C)cc1C(=O)NNC(=S)Nc1ccccc1 | inconclusive: 9.2 µM [activator, partial curve]
CC(O/N=C/c1ccccc1OC(F)F)C(=O)Nc1cccc(S(=O)(=O)N2CCOCC2)c1 (stereo unspecified) | inconclusive: 29.1 µM [inhibitor, single point]
COc1cccc(C(=O)Nc2cc(Cl)c(O)c(Cl)c2)c1 | inconclusive: 29.1 µM [activator, single point]

Compound | Potency
Cc1ccc(SC/C(O)=C(\C#N)c2nc3ccccc3n2C)cc1 | inconclusive: 29.1 µM [activator, single point]
Cc1ccc(C(=O)COC(=O)c2cccc(N3C(=O)c4c(C)nc5ccccc5c4C3=O)c2)cc1C | inconclusive: 20.6 µM [activator, partial curve, poor fit]
CC(=O)Cc1nsc(NC(=O)c2ccc(F)cc2)n1 | inconclusive: 13 µM [activator, partial curve, poor fit]
O=C(Cn1cnc2cc([N+](=O)[O-])ccc2c1=O)N1CCN(S(=O)(=O)c2ccccc2)CC1 | inconclusive: 25.9 µM [inhibitor, single point]
CC(CCc1ccccc1)NS(=O)(=O)c1ccccc1F (stereo unspecified) | inactive
CC(=O)c1ccc(NC(=O)CCc2nnc3ccc(N4CCCC4)nn23)cc1 | inconclusive: 29.1 µM [activator, single point]
COc1ccc(S(=O)(=O)N2CCC(C(=O)N[C@@H](C)C(=O)NCc3cccc(OC)c3)CC2)cc1 | inactive
Cn1nc(Oc2ncc(C(F)(F)F)cc2Cl)cc1C(F)(F)F | inactive
Cc1ccccc1NC(=O)CSc1nc(N)c2c3c(sc2n1)CSC(C)(C)C3 | inconclusive: 32.6 µM [inhibitor, single point]
COc1ccc(N2CCc3c(C)nc4c(OC)cc(OC)cc4c32)c(OC)c1 | inconclusive: 15.8 µM [inhibitor, single point]
CC(=O)Cn1ncc(N(C)Cc2ccccc2)c(Cl)c1=O | inconclusive: 23.1 µM [activator, partial curve]
COc1ccccc1OCCOC(=O)Nc1ccccc1 | inconclusive: 20.6 µM [activator, single point]
Oc1ccc(Nc2nc(-c3ccccc3)nc3ccccc23)cc1 | inconclusive: 16.4 µM [inhibitor, partial curve, poor fit]
O=c1c([N+](=O)[O-])c(N2CCOCC2)c2ccccc2n1Cc1ccccc1 | inactive
CCOc1cc(C(=S)N2CCOCC2)ccc1OS(=O)(=O)c1ccccc1[N+](=O)[O-] | inconclusive: 18.4 µM [inhibitor, single point]
CC(C)C(NC(=O)c1cccs1)C(=O)NC1CCCCC1 (stereo unspecified) | inactive
CCN(c1ccc(NC(=O)CCc2nc3sc4c(c3c(=O)[nH]2)CCCC4)cc1)C(C)C | inactive
COc1ccccc1-n1cnc2cc(NCc3ccccc3O)ccc21 | inconclusive: 4.61 µM [inhibitor, single point]
S=c1nccc(-c2ccc3c(c2)CCO3)[nH]1 | inconclusive: 29.1 µM [activator, single point]
Cc1ccnc(SCC(=O)N2CCc3ccccc32)n1 | inconclusive: 14.6 µM [activator, partial curve]
COc1ccc(NC(=O)CSc2nc3c([nH]c4ccccc43)c(=O)n2C)c(OC)c1 | inconclusive: 5.17 µM [activator, full curve]
C[C@@]12CCC=C[C@H]1[C@H](c1ccc(/C=C/c3ccccc3)cc1F)N(Cc1ccccc1)C2=O | inactive

Compound | Potency
CSc1ccccc1NC(=O)c1cc(C2CC2)on1 | inconclusive: 18.4 µM [activator, partial curve]
CCC(=O)N(C)CCc1cc2c(c(OC)c1/C=N/Nc1ccc(C(=O)O)cc1)OCO2 | inactive
CN1CCN(c2ccc(S(=O)(=O)Nc3ccccc3)cc2[N+](=O)[O-])CC1 | inconclusive: 3.66 µM [inhibitor, partial curve, poor fit]
Clc1ccc(-n2cc(-c3ccc(Br)cc3)[n+]3c2CCCCC3)cc1 | inconclusive: 18.3 µM [inhibitor, single point]
Cc1c(C2(O)CCCCC2)[nH]c2cnccc12 | inconclusive: 20.6 µM [inhibitor, single point]
CCCOc1cccc(/C=N/NC(=O)c2csc(C)c2C)c1 | inactive
O=C(c1sc2ccccc2c1Cl)N1CCN(CCc2ccccn2)CC1 | inactive
c1ccc(-c2cc(NCCN3CCCCC3)c3ccccc3n2)cc1 | inconclusive: 20.6 µM [inhibitor, partial curve]
O=C(Nc1ccncc1)c1cccc(S(=O)(=O)N2CCc3ccccc32)c1 | inconclusive: 0.326 µM [inhibitor, partial curve, poor fit]
Cn1c(=O)oc2cc(S(=O)(=O)N3CCC(C(=O)Nc4ccc(OC(F)(F)F)cc4)CC3)ccc21 | inactive
CC(=O)c1cccc(OCC(=O)NC2CCCCCC2)c1 | inconclusive: 14.6 µM [activator, partial curve, poor fit]
CCc1cccc2c(C(=O)C(NCCCOC)c3ccccc3)c[nH]c12 (stereo unspecified) | inactive
COc1cccc(NC(=O)c2ccc(NC(=O)C(C)C)cc2)c1 | inconclusive: 18.3 µM [activator, partial curve]
CC1CCN(S(=O)(=O)c2cccc(C(=O)N(Cc3ccccc3)c3ccccn3)c2)CC1 | inconclusive: 13 µM [inhibitor, partial curve, poor fit]
CNC(=O)c1c[nH]n2c(=O)c(Cc3ccccc3F)c(C)nc12 | inconclusive: 29.1 µM [activator, single point]
COc1ccc(Cl)cc1NC(=O)c1sc2nc(C)nc(N3CCOCC3)c2c1C | inactive
CC(=O)N1CC(C)Sc2ccc(S(=O)(=O)NC3CCCCC3C)cc21 (stereo unspecified) | inactive
COc1ccc(/C=C/C(=O)NCCn2c(C)cc3ccccc32)cc1OC | inconclusive: 14.6 µM [inhibitor, partial curve, poor fit]
CCCc1cc2c(-c3ccccc3)cc(=O)oc2cc1OCc1ccc(C(=O)O)o1 | inactive
O=C(c1ccco1)N1CCN(c2ncnc3scc(-c4cccs4)c23)CC1 | inconclusive: 20.6 µM [inhibitor, partial curve]
O=c1[nH]c(CN2CCN(C/C=C/c3ccccc3)CC2)nc2cc(Cl)ccc12 | inconclusive: 18.4 µM [inhibitor, partial curve, poor fit]
CSc1nsc(SCC(=O)Nc2ccc(F)cc2F)n1 | inconclusive: 20.6 µM [activator, partial curve]

3 of the compounds above, tab-delimited.
Compound	Potency
COc1cccc(NC(=O)c2ccc(NC(=O)C(C)C)cc2)c1	inconclusive: 18.3 µM [activator, partial curve]
CC1CCN(S(=O)(=O)c2cccc(C(=O)N(Cc3ccccc3)c3ccccn3)c2)CC1	inconclusive: 13 µM [inhibitor, partial curve, poor fit]
CNC(=O)c1c[nH]n2c(=O)c(Cc3ccccc3F)c(C)nc12	inconclusive: 29.1 µM [activator, single point]
